Where a name gives a salt, the structure may show the parent alone. The list shows a part of the results. This data set is noisy: repeats of one test often differ as much as different tests do.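 The cells were human embryonic kidney cells carrying a Renilla luciferase gene, driven by the HSV-TK promoter, on a plasmid put in briefly by transfection. This is the first-round screen of about ten thousand compounds, looking for ones that raise reporter output.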
Test system: HEK 293FT
Test: log relative Renilla luciferase luminescence (reporter expression vs reference, reference not stated) (log (base not stated)); higher = higher recombinant reporter expression
Conditions: 10 µM; time after transfection 48 h

C[C@]12CCC(=O)C[C@@H]1CC[C@@H]1[C@@H]2CC[C@@]2(C)[C@H]1CC[C@]2(C)O [Mestanolone] and C[C@]12C/C(=C/O)C(=O)C[C@@H]1CC[C@@H]1[C@@H]2CC[C@@]2(C)[C@H]1CC[C@]2(C)O [Oxymetholone] are within 0.2 log units of each other in log: -0.0753 for the first, -0.0927 for the second.

CC(C)CC(N(C)C)C1(c2ccc(Cl)cc2)CCC1 (stereo not drawn) and COc1ccc(C(CN(C)C)C2(O)CCCCC2)cc1 (stereo not drawn) are within 0.2 log units of each other in log: -0.00677 for the first, -0.0832 for the second.

CCN(CC)CCOC(=O)C(O)(c1ccccc1)c1ccccc1 and C[N+]1(CCC(C(N)=O)(c2ccccc2)c2ccccc2)CCCCC1 are within 0.2 log units of each other in log: -0.0839 for the first, 0.00338 for the second.

CNC1CC(c2ccc(Cl)c(Cl)c2)c2ccccc21 (stereo not drawn) [Indatraline] and O=C1Nc2ccc(Cl)cc2C(c2ccccc2Cl)=NC1O (stereo not drawn) [Lorazepam] are within 0.2 log units of each other in log: 0.07 for the first, -0.0165 for the second.

Compared with CC(C)[C@]12O[C@H]1[C@@H]1O[C@]13[C@]1(O[C@H]1C[C@H]1C4=C(CC[C@@]13C)C(=O)OC4)[C@@H]2O, C=C1C[C@@H]2[C@H](CC[C@]3(C)C(=O)CC[C@@H]23)[C@@]2(C)C=CC(=O)C=C12 is higher in log: -1.27 for the first, -0.211 for the second.

Compared with CNC1=Nc2ccc(Cl)cc2C(c2ccccc2)=[N+]([O-])C1, Cc1ncc2n1-c1ccc(Cl)cc1C(c1ccccc1F)=NC2 is lower in log: 0.0275 for the first, -0.19 for the second.

c1cncc([C@@H]2CCCN2)c1 [Nornicotine] and FC(F)(F)c1cccc(N2CCNCC2)c1 are within 0.2 log units of each other in log: 0.0864 for the first, 0.0994 for the second.

Compared with CN1C(=O)CN=C(c2ccccc2)c2cc([N+](=O)[O-])ccc21 [Nimetazepam], O=c1c2ccccc2[se]n1-c1ccccc1 is higher in log: -0.507 for the first, 0.00749 for the second.

C#CCN(C)[C@H](C)Cc1ccccc1 [Benzeneethanamine, N,Alpha-dimethyl-N-2-propynyl-(R)- [CAS]] and NC(=O)OCCCc1ccccc1 are within 0.2 log units of each other in log: 0.138 for the first, -0.0215 for the second.

First: NCCc1ccccn1
Second: N=C(NCc1ccc(Cl)cc1)SCCCc1c[nH]cn1 [Clobenpropit]
The log of the first is higher: -0.144 for the first, -0.685 for the second.

CNC(=O)Oc1ccc2c(c1)[C@]1(C)CCN(C)[C@@H]1N2C [Physostigmine] and COc1ccc2c(c1)[C@]13CCCC[C@@H]1[C@H](C2)N(C)CC3 [d-3-Methoxy-N-methylmorphinan hydrobromide] are within 0.2 log units of each other in log: -0.13 for the first, -0.172 for the second.

CC[C@@H](C(N)=O)N1CCCC1=O and CCOC(=O)c1cncn1[C@H](C)c1ccccc1 are within 0.2 log units of each other in log: -0.164 for the first, -0.145 for the second.

C[C@]12CC[C@H]3[C@@H](CCC4=CC(=O)CC[C@@]43C)[C@@H]1CC[C@@H]2O [Testosterone] and C[C@]12Cc3c[nH]nc3C[C@@H]1CC[C@@H]1[C@@H]2CC[C@@]2(C)[C@H]1CC[C@]2(C)O [Stanozolol] are within 0.2 log units of each other in log: 0.075 for the first, 0.045 for the second.

Oc1ccc2c3c1O[C@H]1c4[nH]c5ccccc5c4C[C@@]4(O)[C@@H](C2)N(CC2CC2)CC[C@]314 [Naltrindole] and Oc1ccc2c3c1O[C@H]1[C@@H](O)CC[C@@]4(O)[C@@H](C2)N(CC2CCC2)CC[C@]314 [Nalbuphine] are within 0.2 log units of each other in log: 0.178 for the first, 0.0535 for the second.

First: CC[C@]1(O)CC[C@H]2[C@@H]3CCC4=CCCC[C@@H]4[C@H]3CC[C@@]21C [Ethylestrenol]
Second: CN1CC[C@]23CCCC[C@H]2[C@H]1Cc1ccc(O)cc13
The log of the first is lower: -0.221 for the first, 0.0675 for the second.

First: CCN(C(C)=O)c1cccc(-c2ccnc3c(C#N)cnn23)c1 [Zaleplon]
Second: Cc1ccc(-c2nc3ccc(C)cn3c2CC(=O)N(C)C)cc1
The log of the first is higher: 0.122 for the first, -0.176 for the second.

CN1CC[C@]2(c3cccc(O)c3)Cc3nc4ccccc4cc3C[C@H]2C1 and Oc1cc2c(cc1O)[C@H]1c3ccccc3CN[C@@H]1CC2 are within 0.2 log units of each other in log: 0.129 for the first, 0.015 for the second.

CN1C(=O)COc2c(C(=O)NC3CN4CCC3CC4)cc(Cl)cc21 (stereo not drawn) [Azasetron] and COC(=O)N1CCN(C(=O)Cc2ccc(Cl)c(Cl)c2)C(CN2CCCC2)C1 (stereo not drawn) are within 0.2 log units of each other in log: -0.161 for the first, -0.0839 for the second.

CCCN1C[C@H](CSC)C[C@@H]2c3cccc4[nH]cc(c34)C[C@H]21 and CCCCCCCCCOc1ccc2[nH]cc(CCN)c2c1 [5-Nonyloxytryptamine] are within 0.2 log units of each other in log: 0.077 for the first, 0.0487 for the second.
